Some of the results follow.
Tests used:
Test in all cases: log2 fold change, soluble protein after heating vs DMSO (PISA); higher = thermal stabilisation; K562 lysate, 10 uM; active = over 0.2 and 3.5 SD of the protein, either way, in both replicates (recomputed)
[1] = compound: C#Cc1cccc(Nc2ncnc3cc(OCCOC)c(OCCOC)cc23)c1 [erlotinib]
Procedure, shortened: (§1)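 Pellets of K562 cells were dounce-homogenised in PBS pH 7.4 with 1 mM MgCl2, and the crude extract was held at 1 mg/mL protein for a 30 min treatment with 10 μM compound. Aliquots were heated for 3 min over 48°C-58°C and pooled before NP-40 was added to 0.5% at 4°C. The supernatant from 21,000xg for 90 min was quantified by TMTpro 16plex LC-MS/MS with channel sums equalised. Values are reported from duplicates as log-two fold change in thermal stability relative to solvent controls.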

By UniProt entry, the sequences of proteins in these tests, tags left out. Where a name states a change or a piece, a line headed by the entry shows the natural chain unless it says otherwise.
UniProt Q9NYB0: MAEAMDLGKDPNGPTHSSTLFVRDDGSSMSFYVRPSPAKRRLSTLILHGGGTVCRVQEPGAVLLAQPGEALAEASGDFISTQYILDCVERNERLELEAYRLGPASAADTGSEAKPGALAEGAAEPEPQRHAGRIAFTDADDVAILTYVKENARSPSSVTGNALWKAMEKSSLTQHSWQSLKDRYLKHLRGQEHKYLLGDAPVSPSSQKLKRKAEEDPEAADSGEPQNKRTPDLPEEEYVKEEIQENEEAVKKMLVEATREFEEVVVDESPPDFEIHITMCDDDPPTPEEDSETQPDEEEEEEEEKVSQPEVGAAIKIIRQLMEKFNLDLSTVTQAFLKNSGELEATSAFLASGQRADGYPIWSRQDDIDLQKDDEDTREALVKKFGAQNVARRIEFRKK
UniProt Q12800: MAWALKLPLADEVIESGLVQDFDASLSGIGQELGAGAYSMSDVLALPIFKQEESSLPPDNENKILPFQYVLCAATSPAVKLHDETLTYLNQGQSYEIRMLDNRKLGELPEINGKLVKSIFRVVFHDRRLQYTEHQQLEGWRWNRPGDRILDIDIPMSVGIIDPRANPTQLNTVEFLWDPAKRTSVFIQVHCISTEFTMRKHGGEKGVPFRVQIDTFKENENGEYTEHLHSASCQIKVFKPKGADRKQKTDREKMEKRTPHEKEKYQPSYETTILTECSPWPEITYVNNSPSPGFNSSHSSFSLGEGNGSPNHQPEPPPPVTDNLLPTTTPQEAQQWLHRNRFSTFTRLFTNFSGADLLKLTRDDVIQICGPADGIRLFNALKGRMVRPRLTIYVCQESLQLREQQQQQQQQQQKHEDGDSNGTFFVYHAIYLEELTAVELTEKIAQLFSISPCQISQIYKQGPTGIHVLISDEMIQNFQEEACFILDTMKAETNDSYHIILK
UniProt Q92844: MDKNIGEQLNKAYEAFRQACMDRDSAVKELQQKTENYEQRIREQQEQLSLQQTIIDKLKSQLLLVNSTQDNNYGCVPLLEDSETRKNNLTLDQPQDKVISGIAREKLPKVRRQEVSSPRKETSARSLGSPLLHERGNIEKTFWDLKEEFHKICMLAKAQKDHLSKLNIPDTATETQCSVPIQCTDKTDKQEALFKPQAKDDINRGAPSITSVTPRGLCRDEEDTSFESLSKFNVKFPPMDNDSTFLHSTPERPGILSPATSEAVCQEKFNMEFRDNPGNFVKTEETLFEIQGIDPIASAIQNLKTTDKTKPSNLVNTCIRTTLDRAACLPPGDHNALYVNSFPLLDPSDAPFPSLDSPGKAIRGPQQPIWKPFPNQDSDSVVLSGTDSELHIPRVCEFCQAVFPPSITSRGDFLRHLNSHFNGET
UniProt Q92734, whole entry, looked up: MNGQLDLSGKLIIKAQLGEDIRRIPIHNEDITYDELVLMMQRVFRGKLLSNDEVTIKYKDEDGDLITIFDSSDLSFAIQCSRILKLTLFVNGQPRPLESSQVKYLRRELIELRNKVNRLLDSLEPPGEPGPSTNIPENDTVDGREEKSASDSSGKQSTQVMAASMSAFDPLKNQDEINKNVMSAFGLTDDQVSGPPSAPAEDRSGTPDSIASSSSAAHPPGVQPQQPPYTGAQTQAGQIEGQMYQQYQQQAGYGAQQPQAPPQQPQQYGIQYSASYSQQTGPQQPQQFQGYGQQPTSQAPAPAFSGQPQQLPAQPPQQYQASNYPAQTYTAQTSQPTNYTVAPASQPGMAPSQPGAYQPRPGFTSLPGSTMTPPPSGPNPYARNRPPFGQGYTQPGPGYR
UniProt Q13395: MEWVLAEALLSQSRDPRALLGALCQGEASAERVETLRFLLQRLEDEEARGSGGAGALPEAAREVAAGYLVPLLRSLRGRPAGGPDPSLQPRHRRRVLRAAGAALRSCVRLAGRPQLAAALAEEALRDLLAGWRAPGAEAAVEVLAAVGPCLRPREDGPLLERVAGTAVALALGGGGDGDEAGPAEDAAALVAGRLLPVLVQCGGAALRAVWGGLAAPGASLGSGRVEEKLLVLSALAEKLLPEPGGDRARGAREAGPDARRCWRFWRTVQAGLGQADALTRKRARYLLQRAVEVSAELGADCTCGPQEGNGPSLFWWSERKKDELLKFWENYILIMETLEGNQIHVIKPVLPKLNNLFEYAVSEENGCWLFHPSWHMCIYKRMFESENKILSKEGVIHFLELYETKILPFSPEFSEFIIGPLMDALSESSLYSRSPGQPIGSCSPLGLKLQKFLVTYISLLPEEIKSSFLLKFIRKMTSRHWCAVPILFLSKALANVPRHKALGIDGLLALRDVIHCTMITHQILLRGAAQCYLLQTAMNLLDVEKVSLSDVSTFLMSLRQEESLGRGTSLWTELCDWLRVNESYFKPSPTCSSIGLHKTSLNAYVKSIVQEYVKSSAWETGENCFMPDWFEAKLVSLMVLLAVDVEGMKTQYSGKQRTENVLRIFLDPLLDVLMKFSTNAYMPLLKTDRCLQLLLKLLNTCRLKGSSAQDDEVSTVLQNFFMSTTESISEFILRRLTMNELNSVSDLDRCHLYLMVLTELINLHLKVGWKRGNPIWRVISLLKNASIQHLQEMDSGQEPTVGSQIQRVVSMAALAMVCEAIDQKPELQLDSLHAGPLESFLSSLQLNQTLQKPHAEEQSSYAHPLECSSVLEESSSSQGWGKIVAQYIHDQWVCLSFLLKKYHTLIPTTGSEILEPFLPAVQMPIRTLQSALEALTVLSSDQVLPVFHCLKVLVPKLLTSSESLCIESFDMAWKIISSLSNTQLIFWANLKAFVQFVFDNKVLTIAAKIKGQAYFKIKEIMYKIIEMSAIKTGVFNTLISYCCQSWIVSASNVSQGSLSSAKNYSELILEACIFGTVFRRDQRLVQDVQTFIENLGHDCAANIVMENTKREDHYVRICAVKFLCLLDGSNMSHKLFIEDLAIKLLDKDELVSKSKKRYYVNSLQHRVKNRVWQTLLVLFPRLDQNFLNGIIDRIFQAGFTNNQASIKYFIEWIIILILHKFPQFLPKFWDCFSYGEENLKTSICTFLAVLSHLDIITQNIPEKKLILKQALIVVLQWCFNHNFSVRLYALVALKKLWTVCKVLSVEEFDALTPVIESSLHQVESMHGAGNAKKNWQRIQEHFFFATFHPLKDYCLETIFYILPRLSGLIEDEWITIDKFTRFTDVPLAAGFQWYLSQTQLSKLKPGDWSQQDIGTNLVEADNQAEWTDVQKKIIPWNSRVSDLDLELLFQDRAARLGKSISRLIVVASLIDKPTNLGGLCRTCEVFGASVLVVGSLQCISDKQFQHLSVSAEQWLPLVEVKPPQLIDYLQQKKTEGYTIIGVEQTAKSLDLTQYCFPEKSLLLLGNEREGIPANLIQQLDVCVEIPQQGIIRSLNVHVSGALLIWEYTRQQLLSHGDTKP
UniProt Q9BQ70: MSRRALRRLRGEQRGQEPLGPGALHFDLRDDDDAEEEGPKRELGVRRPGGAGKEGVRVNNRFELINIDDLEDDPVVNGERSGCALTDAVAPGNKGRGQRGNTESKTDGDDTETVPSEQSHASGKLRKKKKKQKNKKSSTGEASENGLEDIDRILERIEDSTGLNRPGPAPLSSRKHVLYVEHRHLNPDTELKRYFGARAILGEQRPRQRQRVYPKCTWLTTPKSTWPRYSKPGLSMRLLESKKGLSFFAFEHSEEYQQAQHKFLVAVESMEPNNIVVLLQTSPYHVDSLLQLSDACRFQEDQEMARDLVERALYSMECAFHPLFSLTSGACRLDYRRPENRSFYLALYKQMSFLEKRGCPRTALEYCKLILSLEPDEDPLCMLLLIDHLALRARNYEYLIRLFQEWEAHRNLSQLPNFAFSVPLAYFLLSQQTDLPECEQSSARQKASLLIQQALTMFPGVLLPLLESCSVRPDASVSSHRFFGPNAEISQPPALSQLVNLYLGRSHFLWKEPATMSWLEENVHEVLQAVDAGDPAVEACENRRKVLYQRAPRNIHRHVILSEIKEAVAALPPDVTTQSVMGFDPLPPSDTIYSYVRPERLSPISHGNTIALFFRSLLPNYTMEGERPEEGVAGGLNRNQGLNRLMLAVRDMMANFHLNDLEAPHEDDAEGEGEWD
UniProt Q96MN5: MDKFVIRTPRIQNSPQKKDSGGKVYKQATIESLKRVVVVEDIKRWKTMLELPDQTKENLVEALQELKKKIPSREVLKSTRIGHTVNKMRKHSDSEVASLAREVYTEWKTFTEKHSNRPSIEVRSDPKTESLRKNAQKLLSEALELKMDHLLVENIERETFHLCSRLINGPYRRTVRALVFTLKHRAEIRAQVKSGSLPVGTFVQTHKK
UniProt Q7Z6L1: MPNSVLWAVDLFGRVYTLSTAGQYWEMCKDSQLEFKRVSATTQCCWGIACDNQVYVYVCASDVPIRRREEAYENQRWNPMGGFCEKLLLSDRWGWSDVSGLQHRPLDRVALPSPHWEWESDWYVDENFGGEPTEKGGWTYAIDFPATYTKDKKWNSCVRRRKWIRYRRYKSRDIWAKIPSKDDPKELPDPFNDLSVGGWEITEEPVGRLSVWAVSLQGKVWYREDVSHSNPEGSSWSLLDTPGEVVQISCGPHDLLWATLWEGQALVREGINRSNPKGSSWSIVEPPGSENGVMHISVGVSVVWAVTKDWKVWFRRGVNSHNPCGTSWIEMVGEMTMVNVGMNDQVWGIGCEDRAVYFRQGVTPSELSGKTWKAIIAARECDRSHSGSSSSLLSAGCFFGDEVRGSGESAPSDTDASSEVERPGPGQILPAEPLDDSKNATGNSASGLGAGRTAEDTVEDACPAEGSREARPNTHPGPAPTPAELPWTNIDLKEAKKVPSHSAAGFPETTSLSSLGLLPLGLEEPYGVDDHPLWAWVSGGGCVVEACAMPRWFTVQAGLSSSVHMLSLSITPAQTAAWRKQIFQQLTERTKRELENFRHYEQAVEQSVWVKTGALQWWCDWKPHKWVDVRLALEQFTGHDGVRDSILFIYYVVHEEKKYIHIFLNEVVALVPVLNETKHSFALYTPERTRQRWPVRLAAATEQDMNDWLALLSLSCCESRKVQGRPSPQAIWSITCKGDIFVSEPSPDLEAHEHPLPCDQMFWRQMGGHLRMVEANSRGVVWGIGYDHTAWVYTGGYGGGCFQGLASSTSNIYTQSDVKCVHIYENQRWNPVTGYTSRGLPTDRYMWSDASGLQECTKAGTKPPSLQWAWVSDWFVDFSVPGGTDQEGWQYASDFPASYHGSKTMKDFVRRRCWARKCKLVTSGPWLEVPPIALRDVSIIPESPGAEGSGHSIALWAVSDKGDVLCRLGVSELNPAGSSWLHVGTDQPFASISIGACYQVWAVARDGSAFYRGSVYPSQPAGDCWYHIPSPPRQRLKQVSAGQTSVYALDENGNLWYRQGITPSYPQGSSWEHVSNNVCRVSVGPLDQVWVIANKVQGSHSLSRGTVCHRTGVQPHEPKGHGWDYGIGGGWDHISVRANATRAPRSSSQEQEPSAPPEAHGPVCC
UniProt O95551: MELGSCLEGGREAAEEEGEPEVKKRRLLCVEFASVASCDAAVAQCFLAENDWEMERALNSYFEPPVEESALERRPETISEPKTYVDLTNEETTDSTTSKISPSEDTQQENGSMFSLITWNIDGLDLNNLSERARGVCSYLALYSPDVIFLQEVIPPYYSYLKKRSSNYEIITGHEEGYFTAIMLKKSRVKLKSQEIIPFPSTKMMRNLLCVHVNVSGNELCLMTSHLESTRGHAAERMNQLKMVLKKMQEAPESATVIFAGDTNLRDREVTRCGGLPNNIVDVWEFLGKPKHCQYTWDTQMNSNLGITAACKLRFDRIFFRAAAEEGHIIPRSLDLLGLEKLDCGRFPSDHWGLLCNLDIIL
UniProt Q9UBB9: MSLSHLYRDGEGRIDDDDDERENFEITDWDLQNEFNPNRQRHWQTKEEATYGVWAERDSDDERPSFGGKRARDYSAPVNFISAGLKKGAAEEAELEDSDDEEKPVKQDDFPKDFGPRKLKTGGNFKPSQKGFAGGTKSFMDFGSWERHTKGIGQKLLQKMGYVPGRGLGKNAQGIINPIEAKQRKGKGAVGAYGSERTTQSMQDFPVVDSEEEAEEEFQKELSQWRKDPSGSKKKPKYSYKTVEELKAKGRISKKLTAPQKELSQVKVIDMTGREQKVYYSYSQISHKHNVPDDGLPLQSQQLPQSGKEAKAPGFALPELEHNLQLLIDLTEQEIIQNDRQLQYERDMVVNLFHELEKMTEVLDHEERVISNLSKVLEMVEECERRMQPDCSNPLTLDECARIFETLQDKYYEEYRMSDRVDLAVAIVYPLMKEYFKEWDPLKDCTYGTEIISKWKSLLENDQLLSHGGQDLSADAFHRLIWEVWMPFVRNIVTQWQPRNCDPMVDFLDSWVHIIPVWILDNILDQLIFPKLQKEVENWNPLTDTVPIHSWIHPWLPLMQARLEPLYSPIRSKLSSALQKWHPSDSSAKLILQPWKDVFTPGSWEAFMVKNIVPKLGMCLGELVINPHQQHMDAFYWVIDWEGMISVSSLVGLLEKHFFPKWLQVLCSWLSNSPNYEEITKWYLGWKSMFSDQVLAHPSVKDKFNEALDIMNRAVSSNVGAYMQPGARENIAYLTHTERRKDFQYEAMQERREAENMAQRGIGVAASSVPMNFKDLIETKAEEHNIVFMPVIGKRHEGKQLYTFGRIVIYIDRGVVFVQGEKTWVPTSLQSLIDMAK

[2] = compound: C/C(=N\NC(=O)C1=CC(=CC=C1)S(=O)(=O)N2CCOCC2)/C3=C(C=CC(=C3)Cl)O
Procedure, shortened: as §1

[3] = compound: C1=CC(=CC=C1C2=NC3=C(N2)C=C(C=C3)C(=O)N)OC4=CC=C(C=C4)Cl
Procedure, shortened: as §1

[4] = compound: C1=CC2=C(C=CC(=C2)/C=C\3/C(=O)NC(=NCC4=CC=CS4)S3)N=C1
Procedure, shortened: as §1

[5] = compound: C1=CC2=NC=CN=C2C=C1/C=C/3\C(=O)NC(=O)S3
Procedure, shortened: as §1

[6] = compound: C1=CC=C(C=C1)C2=NC(=C(N2)C3=CC=NC=C3)C4=CC(=C(C=C4)Cl)O
Procedure, shortened: as §1

[7] = compound: C1=CC=C2C(=C1)C3=NNC4=CC=CC(=C43)C2=O
Procedure, shortened: as §1

[8] = compound: C1CCN(C1)C(=O)NC2=CC=CC(=C2)NC3=NC=C(C(=N3)NCCC4=CN=CN4)Br
Procedure, shortened: as §1

[9] = compound: C1CN(CCC1(CC2=CC=C(C=C2)Cl)N)C3=NC=NC4=C3C=CN4
Procedure, shortened: as §1

[10] = compound: C1COCCN1CCN2C3=CC=CC=C3N=C2NC(=O)C4=CC(=CC=C4)[N+](=O)[O-] [IRAK-1-4 Inhibitor I]
Procedure, shortened: as §1

Measured: log2 fold change

TCHP (UniProt Q9BT92)
inactive: [1] 0 | [2] 0.009 | [3] -0.072 | [4] -0.121 | [5] -0.009 | [6] -0.098 | [7] 0.086 | [8] -0.036 | [9] -0.003 | [10] -0.038

TCP11L1 (UniProt Q9NUJ3)
inactive: [1] 0.082 | [2] 0.032 | [3] 0.032 | [4] 0.033 | [5] -0.053 | [6] 0.075 | [7] -0.069 | [8] -0.005 | [9] 0.094 | [10] 0.001

TERF2IP (UniProt Q9NYB0)
inactive: [1] -0.003 | [2] 0.025 | [3] 0.03 | [4] -0.054 | [5] -0.023 | [6] -0.001 | [7] 0.005 | [8] 0.019 | [9] 0.029 | [10] 0.009

TAMM41 isoform 3 (UniProt Q96BW9)
inactive: [1] -0.028 | [2] -0.035 | [3] 0.056 | [4] -0.021 | [5] 0.06 | [6] -0.005 | [7] 0.035 | [8] -0.082 | [9] 0.061 | [10] -0.034

TAX1BP1 (UniProt Q86VP1)
inactive: [1] 0.022 | [2] 0.038 | [3] 0.037 | [4] -0.013 | [5] -0.027 | [6] 0.014 | [7] 0.024 | [8] -0.004 | [9] -0.006 | [10] 0.006

TFCP2 (UniProt Q12800)
inactive: [1] -0.035 | [2] 0.08 | [3] -0.115 | [4] 0.01 | [5] -0.042 | [6] -0.007 | [7] -0.02 | [8] -0.038 | [9] -0.044 | [10] 0.035

TDRKH (UniProt Q9Y2W6)
inactive: [1] -0.067 | [2] 0.023 | [3] -0.017 | [4] -0.018 | [5] -0.065 | [6] 0.02 | [7] -0.086 | [8] -0.011 | [9] -0.022 | [10] 0.047

TELO2 (UniProt Q9Y4R8)
inactive: [1] 0.023 | [2] 0.006 | [3] -0.035 | [4] 0.025 | [5] 0.048 | [6] 0 | [7] 0.011 | [8] -0.031 | [9] 0.002 | [10] 0.009

TBC1D13 (UniProt Q9NVG8)
inactive: [1] 0 | [2] 0.014 | [3] 0.018 | [4] 0.012 | [5] -0.001 | [6] 0 | [7] 0.015 | [8] -0.011 | [9] 0.024 | [10] 0.015

TF (UniProt P02787)
inactive: [1] -0.059 | [2] 0.174 | [3] 0.016 | [4] -0.019 | [5] -0.009 | [6] 0.017 | [7] 0.087 | [8] 0.118 | [9] 0.071 | [10] -0.029

TATDN2 (UniProt Q93075)
inactive: [1] 0.104 | [2] 0.036 | [3] -0.108 | [4] -0.025 | [5] -0.138 | [6] 0.019 | [7] -0.02 | [8] -0.038 | [9] -0.031 | [10] 0.011

TAX1BP3 (UniProt O14907)
inactive: [1] -0.052 | [2] -0.213 | [3] -0.048 | [4] 0.136 | [5] -0.049 | [6] -0.128 | [7] -0.291 | [8] -0.06 | [9] -0.109 | [10] -0.165

TAF9B (UniProt Q9HBM6)
inactive: [1] -0.022 | [2] -0.084 | [3] 0.14 | [4] 0.042 | [5] -0.734 | [6] -0.14 | [7] -0.026 | [8] -0.021 | [9] 0.06 | [10] 0.024

TANK (UniProt Q92844)
inactive: [1] 0 | [2] -0.089 | [3] -0.015 | [4] -0.069 | [5] 0.003 | [6] 0.025 | [7] 0.089 | [8] 0.082 | [9] 0 | [10] 0.028

TFG (UniProt Q92734)
inactive: [1] -0.017 | [2] 0.008 | [3] 0.041 | [4] 0.011 | [5] 0 | [6] 0.008 | [7] -0.008 | [8] 0.002 | [9] 0.019 | [10] 0.004

TARBP1 (UniProt Q13395)
inactive: [1] 0.134 | [2] 0.047 | [3] -0.02 | [4] 0.051 | [5] -0.059 | [6] 0.044 | [7] -0.048 | [8] 0.007 | [9] 0.034 | [10] 0.084

TDRD3 isoform 3 (UniProt Q9H7E2)
inactive: [1] 0.051 | [2] -0.029 | [3] -0.019 | [4] 0.086 | [5] 0.005 | [6] 0.257 | [7] -0.085 | [8] -0.059 | [9] 0 | [10] 0.051

TCF25 (UniProt Q9BQ70)
inactive: [1] -0.01 | [2] 0.004 | [3] -0.166 | [4] 0.057 | [5] 0.046 | [6] 0.057 | [7] 0.029 | [8] 0.092 | [9] 0.055 | [10] -0.028

TCAF1 (UniProt Q9Y4C2)
inactive: [1] -0.013 | [2] -0.022 | [3] -0.037 | [4] -0.005 | [5] 0.005 | [6] 0.025 | [7] -0.079 | [8] -0.032 | [9] 0.005 | [10] -0.014

TBC1D7 (UniProt Q9P0N9)
inactive: [1] 0.014 | [2] -0.273 | [3] 0.003 | [4] -0.006 | [5] -0.003 | [6] -0.125 | [7] 0.099 | [8] 0.041 | [9] -0.029 | [10] 0.05

TCAF2 (UniProt A6NFQ2)
inactive: [1] -0.006 | [2] -0.218 | [3] -0.003 | [4] -0.059 | [5] -0.038 | [6] -0.027 | [7] -0.033 | [8] -0.022 | [9] -0.047 | [10] -0.005

TCEANC2 (UniProt Q96MN5)
inactive: [1] -0.107 | [2] 0.107 | [3] -0.04 | [4] 0.09 | [5] 0.045 | [6] -0.018 | [7] 0.119 | [8] -0.114 | [9] -0.042 | [10] 0.137

TECPR1 isoform 4 (UniProt Q7Z6L1)
inactive: [1] 0.007 | [3] 0.053 | [5] 0.373

TEFM (UniProt Q96QE5)
inactive: [1] 0.064 | [2] -0.029 | [3] 0.069 | [4] -0.126 | [6] -0.035 | [7] 0.071 | [8] 0.163 | [9] -0.026 | [10] 0.033

TAZ (UniProt Q16635)
inactive: [1] -0.062 | [3] 0.12

TDP2 isoform 2 (UniProt O95551)
inactive: [1] 0.006 | [2] 0.027 | [3] 0.016 | [4] -0.035 | [5] 0.004 | [6] -0.006 | [7] -0.003 | [8] -0.014 | [9] -0.025 | [10] 0.009

TBCEL (UniProt Q5QJ74)
inactive: [1] 0.198 | [2] 0.306 | [3] 0.138 | [4] 0.061 | [5] 0.542 | [6] -0.178 | [7] -0.1 | [10] 0.15

TEAD2 isoform 4 (UniProt Q15562)
inactive: [1] 0.322 | [2] 0.093 | [3] 0.11 | [4] -0.342 | [7] -0.114

TDP1 (UniProt Q9NUW8)
inactive: [1] 0.061 | [2] -0.024 | [4] 0.076 | [5] -0.011 | [6] -0.017 | [7] 0.029 | [8] -0.036 | [9] -0.037 | [10] 0.011

Retrieved one by one from the entries so far (2):
TDP1 (UniProt Q9NUW8)
inactive: [1] 0.061 | [2] -0.024 | [4] 0.076 | [5] -0.011 | [6] -0.017 | [7] 0.029 | [8] -0.036 | [9] -0.037 | [10] 0.011

TBCEL (UniProt Q5QJ74)
inactive: [1] 0.198 | [2] 0.306 | [3] 0.138 | [4] 0.061 | [5] 0.542 | [6] -0.178 | [7] -0.1 | [10] 0.15

Remaining list, next part.

TFDP1 (UniProt Q14186)
inactive: [1] 0.039 | [2] 0.021 | [3] -0.12 | [4] 0.07 | [5] -0.086 | [6] 0.071 | [7] -0.059 | [8] -0.087 | [9] 0.03 | [10] 0.026

TESMIN (UniProt Q9Y4I5)
inactive: [1] -0.068 | [2] 0.148 | [3] -0.125 | [4] -0.122 | [6] -0.015 | [7] 0.171 | [8] -0.105 | [9] -0.02 | [10] 0.12

TFIP11 (UniProt Q9UBB9)
inactive: [1] -0.026 | [2] -0.099 | [3] -0.082 | [4] -0.025 | [5] -0.027 | [6] 0.023 | [7] -0.036 | [8] -0.008 | [9] 0.074 | [10] -0.016

From the supplement of paper PMC10849652
